{"source": "the supplement of paper PMC3334620", "note": "The full ranking holds about 33,000 sequences; the median of “E-score (-0.5 to 0.5)” is about -0.0059, and the highest 2% start at about 0.26. This is one part of the list."}
{"molecular_target": "T1, Cin5 (UniProt P40917)", "T1 sequence": "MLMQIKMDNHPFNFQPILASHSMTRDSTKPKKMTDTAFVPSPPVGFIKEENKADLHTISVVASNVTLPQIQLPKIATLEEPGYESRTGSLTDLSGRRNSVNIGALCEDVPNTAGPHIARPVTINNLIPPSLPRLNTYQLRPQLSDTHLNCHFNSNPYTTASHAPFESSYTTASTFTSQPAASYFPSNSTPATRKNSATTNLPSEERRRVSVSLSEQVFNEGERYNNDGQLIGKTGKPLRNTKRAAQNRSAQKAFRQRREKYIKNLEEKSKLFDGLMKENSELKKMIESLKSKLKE", "assay": "PBM E-score (8-mer binding enrichment) (E-score (-0.5 to 0.5)); higher = stronger / more preferred TF binding", "details": "protein concentration: 100 nM; construct: GST-full length", "outline": "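Yeast transcription factors, full-length or as DNA-binding domains, were expressed with a GST tag using PURExpress in vitro transcription/translation. At about 100-200 nM they were applied to universal all-10-mer Agilent arrays, double-stranded by primer extension on fresh or once-stripped slides. Fluorescent anti-GST detected bound protein, and masliner normalised the scans. E-scores for ungapped eight-base words, pooled with reverse complements, came from the Universal PBM Analysis Suite.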"}
{"sequence": "ATCAAGCG", "PBM E-score": "2e-05"}
{"sequence": "AAAATGAA", "PBM E-score": 0.124}
{"sequence": "CGACGGAC", "PBM E-score": 0.0756}
{"sequence": "GATGTGTA", "PBM E-score": 0.0907}
{"sequence": "CCATTGGA", "PBM E-score": -0.045}
{"sequence": "ACATGCGT", "PBM E-score": -0.01}
{"sequence": "ACAATGTG", "PBM E-score": 0.0255}
{"sequence": "GTTTGAAA", "PBM E-score": 0.172}
{"sequence": "CGCTTACC", "PBM E-score": 0.15}
{"sequence": "GCCACATA", "PBM E-score": 0.064}
{"sequence": "AAATGCGG", "PBM E-score": 0.0916}
{"sequence": "CACCACCA", "PBM E-score": -0.0807}
{"sequence": "CCTTAACG", "PBM E-score": -0.0146}
{"sequence": "CGAGGAAG", "PBM E-score": -0.188}
{"sequence": "GAAGGATC", "PBM E-score": -0.086}
{"sequence": "ACCACGTA", "PBM E-score": -0.11}
{"sequence": "AGTGCGTA", "PBM E-score": -0.0422}
{"sequence": "ACTTCTCA", "PBM E-score": 0.0227}
{"sequence": "GACAGTGC", "PBM E-score": -0.0152}
{"sequence": "CGTGAGCA", "PBM E-score": -0.18}
{"sequence": "CAATACCG", "PBM E-score": -0.0361}
{"sequence": "GTTTGGAA", "PBM E-score": -0.0016}
{"sequence": "CGCTTCCA", "PBM E-score": -0.0495}
{"sequence": "ATTTTACC", "PBM E-score": 0.237}
{"sequence": "CGCGACAC", "PBM E-score": 0.0363}
{"sequence": "GGACAGAC", "PBM E-score": -0.192}
{"sequence": "ATAGGCGG", "PBM E-score": 0.156}
{"sequence": "CCTTTCAG", "PBM E-score": -0.18}
{"sequence": "CAAGTTAC", "PBM E-score": 0.104}
{"sequence": "GGAGCGCA", "PBM E-score": -0.283}
{"sequence": "CCTTATGA", "PBM E-score": 0.0855}
{"sequence": "TCAGACCA", "PBM E-score": 0.0117}
{"sequence": "GAACTAAA", "PBM E-score": 0.172}
{"sequence": "AGCTTGAA", "PBM E-score": -0.00033}
{"sequence": "ATCATCTG", "PBM E-score": 0.211}
{"sequence": "AAGATTTC", "PBM E-score": 0.195}
{"sequence": "ACCATTTG", "PBM E-score": 0.0298}
{"sequence": "AACTATAT", "PBM E-score": 0.294}
{"sequence": "AGTAGCTG", "PBM E-score": 0.00262}
{"sequence": "CGTGCTAG", "PBM E-score": -0.194}
{"sequence": "GAGGCGTA", "PBM E-score": 0.101}
{"sequence": "CAGTCCCG", "PBM E-score": -0.242}
{"sequence": "CGTGTCAA", "PBM E-score": -0.293}
{"sequence": "GCGATTAA", "PBM E-score": 0.209}
{"sequence": "CAAAAAGA", "PBM E-score": 0.122}
{"sequence": "CGTTAGGC", "PBM E-score": -0.249}
{"sequence": "CTACGACA", "PBM E-score": 0.0366}
{"sequence": "CCCGCCAG", "PBM E-score": -0.0957}
{"sequence": "ACCCAGAG", "PBM E-score": 0.103}
{"sequence": "CTCGGAGC", "PBM E-score": -0.0107}
{"sequence": "AACCTACT", "PBM E-score": 0.172}
{"sequence": "CATTTCCG", "PBM E-score": 0.242}
{"sequence": "ACCCCACA", "PBM E-score": 0.144}
{"sequence": "AAGGGTGC", "PBM E-score": -0.202}
{"sequence": "TAGTCTCA", "PBM E-score": -0.112}
{"sequence": "ATTACCGC", "PBM E-score": 0.115}
{"sequence": "GTCACTAA", "PBM E-score": 0.174}
{"sequence": "GCTTCCCC", "PBM E-score": -0.277}
{"sequence": "ATCAACCC", "PBM E-score": 0.212}
{"sequence": "AGGCGCGA", "PBM E-score": 0.0728}
{"sequence": "TCAAGGGA", "PBM E-score": -0.199}
{"sequence": "AGCTCCAA", "PBM E-score": 0.103}
{"sequence": "CCTGGCAA", "PBM E-score": -0.153}
{"sequence": "GGCCTCGA", "PBM E-score": -0.148}
{"sequence": "CACCGACC", "PBM E-score": -0.0953}
{"sequence": "CAAGCAAG", "PBM E-score": -0.103}
{"sequence": "AATGTTAA", "PBM E-score": 0.0654}
{"sequence": "AGACCGCA", "PBM E-score": -0.0965}
{"sequence": "ACTGCGAT", "PBM E-score": 0.0329}
{"sequence": "GGAGATCC", "PBM E-score": -0.217}
{"sequence": "AATGTCTA", "PBM E-score": 0.0318}
{"sequence": "TTGCAAAA", "PBM E-score": 0.119}
{"sequence": "CTAAGTTC", "PBM E-score": -0.176}
{"sequence": "AACATATA", "PBM E-score": 0.183}
{"sequence": "AGGGCTGG", "PBM E-score": -0.189}
{"sequence": "CGGGGGGA", "PBM E-score": -0.452}
{"sequence": "GACCCGTC", "PBM E-score": -0.273}
{"sequence": "CATTTGGA", "PBM E-score": -0.0212}
{"sequence": "AGAGTTCA", "PBM E-score": -0.0801}
{"sequence": "ATTACTAA", "PBM E-score": 0.334}
{"sequence": "GGGGGCCA", "PBM E-score": -0.361}
{"sequence": "ACCCATTC", "PBM E-score": 0.118}
{"sequence": "ATACTATG", "PBM E-score": 0.208}
{"sequence": "ACATGCTG", "PBM E-score": 0.0475}
{"sequence": "ATAATGGA", "PBM E-score": 0.184}
{"sequence": "GGCAAGTA", "PBM E-score": 0.0585}
{"sequence": "AATAAAAC", "PBM E-score": 0.18}
{"sequence": "ACACAACC", "PBM E-score": 0.0551}
{"sequence": "GTCAGAAA", "PBM E-score": 0.0145}
{"sequence": "CATGATTC", "PBM E-score": -0.0303}
{"sequence": "CGTGCAGC", "PBM E-score": -0.0253}
{"sequence": "GTATTCCA", "PBM E-score": 0.0693}
{"sequence": "CGAAGTGC", "PBM E-score": 0.0932}
{"sequence": "CCTAGGCG", "PBM E-score": -0.12}
{"sequence": "TTACTAAA", "PBM E-score": 0.266}
{"sequence": "GACGGGGC", "PBM E-score": -0.206}
{"sequence": "CAACGTTA", "PBM E-score": 0.153}
{"sequence": "AATTCACA", "PBM E-score": 0.258}
{"sequence": "CTACACAC", "PBM E-score": 0.0775}
{"sequence": "CCCGTAGC", "PBM E-score": -0.205}
{"sequence": "AATAAGCG", "PBM E-score": 0.109}
{"sequence": "ACTTATTC", "PBM E-score": 0.162}
{"sequence": "ACCCGGTC", "PBM E-score": -0.145}
{"sequence": "AAGCTTCG", "PBM E-score": -0.0536}
{"sequence": "GAGGGTGC", "PBM E-score": -0.316}
{"sequence": "AAGTTGAT", "PBM E-score": 0.0855}
{"sequence": "CCGGCTTC", "PBM E-score": 0.0218}
{"sequence": "ACTGATGC", "PBM E-score": 0.0568}
{"sequence": "AGTGTCTG", "PBM E-score": 0.0894}
{"sequence": "CCTCTCTC", "PBM E-score": -0.237}
{"sequence": "CATAATCA", "PBM E-score": 0.385}
{"sequence": "TCGTGCAA", "PBM E-score": -0.00799}
{"sequence": "CGCATGAC", "PBM E-score": -0.0949}
{"sequence": "AGGTGTCG", "PBM E-score": -0.0661}
{"sequence": "CTGGCCCA", "PBM E-score": -0.327}
{"sequence": "CATCAGGA", "PBM E-score": 0.0865}
{"sequence": "AGCCGCTA", "PBM E-score": -0.116}
{"sequence": "AGACACCC", "PBM E-score": -0.178}
{"sequence": "AATCAAGC", "PBM E-score": 0.0604}
{"sequence": "CAACTTAC", "PBM E-score": 0.0414}
{"sequence": "AATTAATA", "PBM E-score": 0.341}
{"sequence": "ATAATATA", "PBM E-score": 0.345}
{"sequence": "ATCACGTG", "PBM E-score": 0.124}
{"sequence": "GAGTGCGC", "PBM E-score": -0.01}
{"sequence": "CGCTCCAG", "PBM E-score": -0.299}
{"sequence": "ATATGATA", "PBM E-score": 0.314}
{"sequence": "GGGAGGTA", "PBM E-score": -0.121}
{"sequence": "TCAGAGCA", "PBM E-score": -0.128}
{"sequence": "AAATTCCA", "PBM E-score": 0.295}
{"sequence": "GCACGGCA", "PBM E-score": -0.125}
{"sequence": "ACTCAAAT", "PBM E-score": 0.0607}
{"sequence": "ACAACAAC", "PBM E-score": 0.139}
{"sequence": "GACTTAAC", "PBM E-score": -0.143}
{"sequence": "ACGCTGTG", "PBM E-score": -0.0954}
{"sequence": "GGCGCTAA", "PBM E-score": -0.0505}
{"sequence": "CCTCTCAG", "PBM E-score": -0.291}
{"sequence": "GACTCCGC", "PBM E-score": -0.055}
{"sequence": "CTTTGCAA", "PBM E-score": 0.0565}
{"sequence": "ACCCGTTG", "PBM E-score": -0.193}
{"sequence": "ACCGGAAC", "PBM E-score": 0.206}
{"sequence": "AGACGTTG", "PBM E-score": 0.0953}
{"sequence": "AGTAGTTC", "PBM E-score": 0.212}
{"sequence": "AGGGTTGC", "PBM E-score": -0.11}
{"sequence": "CAAGCGCC", "PBM E-score": -0.291}
{"sequence": "CACAGGAC", "PBM E-score": -0.063}
{"sequence": "AAATCGAT", "PBM E-score": 0.113}
{"sequence": "ACTTTAGG", "PBM E-score": -0.0843}
{"sequence": "ACCTAGAG", "PBM E-score": -0.18}
{"sequence": "GTCGGGCA", "PBM E-score": -0.173}
{"sequence": "CCAGCCAC", "PBM E-score": -0.119}
{"sequence": "GAGCCTAC", "PBM E-score": -0.0572}
{"sequence": "ATGAAACG", "PBM E-score": 0.131}
{"sequence": "CCCCGTAA", "PBM E-score": 0.0337}
{"sequence": "ATTATTGA", "PBM E-score": 0.111}
{"sequence": "GAAAAGTC", "PBM E-score": -0.00316}
{"sequence": "AAGAGAGG", "PBM E-score": -0.0598}
{"sequence": "AAATGTTG", "PBM E-score": -0.147}
{"sequence": "TACATGGA", "PBM E-score": 0.0282}
{"sequence": "AGAATGCT", "PBM E-score": 0.127}
{"sequence": "GTCCGGGA", "PBM E-score": 0.0245}
{"sequence": "ATAATTCC", "PBM E-score": 0.211}
{"sequence": "ACCTACCC", "PBM E-score": 0.0263}
{"sequence": "CCAATATC", "PBM E-score": 0.191}
{"sequence": "ATCTCACA", "PBM E-score": 0.0525}
{"sequence": "TGCGAAAA", "PBM E-score": 0.0168}
{"sequence": "CCTCACGA", "PBM E-score": -0.151}
{"sequence": "AGCAAAGC", "PBM E-score": -0.0675}
{"sequence": "TAACATTA", "PBM E-score": 0.117}
{"sequence": "CACTTCGG", "PBM E-score": 0.0931}
{"sequence": "GGTTCTCA", "PBM E-score": 0.0519}
{"sequence": "ATTATATG", "PBM E-score": 0.249}
{"sequence": "AGTGGCAG", "PBM E-score": 0.0428}
